# From PubChem BioAssay AID445 (National Center for Advancing Translational Sciences (NCATS), 2006)
# The other results are listed elsewhere or left out. Further columns of the screen follow, without active or inactive calls. Most of these compounds were active or inconclusive in the main read-out, so they are no random draw. Potencies come from curve fits of mixed quality, noted in brackets.
# Test: IkB Signaling
# Conditions: ABC-DLBCL IkBa-CBG/CBR dual luciferase ratio (green luciferase fused to IkBa over red control in OCI-Ly3 lymphoma cells), 4 h
# How it was run: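 In this assay, an IκBα–CBG68 fusion accumulates when IKK-driven degradation is blocked; native CBR normalizes for cell number. OCI-Ly3 cells were treated 4 h with compound and doxycycline, then green and red light read after Chroma-Glo addition.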
# [1] = measured here: control luc red channel unless noted
# [2] = measured here: IkB-luc green channel
# [3] = measured here: control luc red channel
compound,measurement,setting,value
O=C(c1ccc2c(Cl)c3c(nc2c1)CCCC3)N1CCN(c2cccc(Cl)c2)CC1,AC50,[1],"6.31 µM [falling, partial curve]"
O=c1nc2s/c(=C\c3ccco3)c(=O)n2nc1Cc1ccccc1,AC50,[1],"3.98 µM [falling, full curve]"
Cc1ccc(-c2c(C(=O)NCCc3ccc(Cl)cc3)oc(=O)c3ccccc23)cc1,AC50,[1],"3.98 µM [falling, full curve]"
Cc1cccc(N2C(=O)CCSC23C(=O)N(Cc2ccc(F)cc2)c2ccccc23)c1 (stereo not drawn),AC50,[1],"20 µM [falling, single point]"
COCCc1nn2c(=O)cc(COC(=O)c3ccc(C(C)(C)C)cc3)nc2s1,AC50,[1],"31.6 µM [falling, single point]"
COc1ccc(CNc2ncnc3c2c(-c2ccccc2)cn3-c2ccccc2)cc1,AC50,[1],"5.01 µM [rising, single point]"
Fc1cccc(Cl)c1Cn1nnc2c(-n3ccnc3)ncnc21,AC50,[1],"25.1 µM [falling, partial curve]"
Cc1ccc(-c2nc(SCc3ccc(Br)cc3)n3[nH]c(=O)cc3n2)cc1,AC50,[1],"25.1 µM [rising, single point]"
CN1CC(=O)N(CC(=O)Nc2ccc(Cl)c(C(F)(F)F)c2)c2ccccc2C1=O,AC50,[1],"0.0251 µM [falling, full curve, poor fit]"
O=C1c2ccc(Oc3ccc4c(c3)C(=O)N(CCCCO)C4=O)cc2C(=O)N1CCCCO,AC50,[1],"39.8 µM [falling, single point]"
CCOC(=O)c1ccccc1NC(=O)Cn1c(=O)n(Cc2ccccc2)c(=O)c2c(C)c(C)sc21,AC50,[1],"0.794 µM [rising, full curve, poor fit]"
O=C1C(c2[nH]c3ccccc3c2O)=Nc2ccccc21,AC50,[1],"50.1 µM [rising, partial curve, poor fit] [measured here: IkB-luc green channel]"
CCC(=O)Oc1ccc(-c2nc3ccccc3c(=O)o2)cc1,AC50,[1],"15.8 µM [falling, partial curve]"
CCN(c1ccc(Cl)cc1)S(=O)(=O)c1nnc(NC(=O)C(C)C)s1,AC50,[1],"10 µM [falling, partial curve]"
Cc1ccc(-n2ncc(C(=O)N3CCN(Cc4ccccc4)CC3)c2C2CCN(C(=O)OC(C)(C)C)CC2)c(C)c1,AC50,[1],"31.6 µM [falling, partial curve]"
COc1cc(OC)cc(C(=O)Nc2cccc(N3CCCC3)c2)c1,AC50,[1],"12.6 µM [falling, partial curve]"
CC(C)(C)OC(=O)N1CCC(c2c(C(=O)NCc3ccco3)cnn2-c2ccc(F)cc2)CC1,AC50,[1],"12.6 µM [falling, partial curve]"
COc1ccc(-c2nnc(SCC(=O)Nc3ccc(F)cc3)s2)cc1,AC50,[1],"6.31 µM [falling, single point]"
Cc1cc(N2CCN(C(c3ccccc3)c3ccc(Cl)cc3)CC2)n2ncnc2n1 (stereo not drawn),AC50,[2],"39.8 µM [falling, single point]"
same,AC50,[3],"25.1 µM [falling, partial curve]"
CC(=O)c1ccc(NC(=O)NCCc2c[nH]c3ccccc23)cc1,AC50,[1],"20 µM [falling, single point]"
CC(=O)N(c1cccc(C)c1)C1SC(=O)N(c2ccccc2)C1=O (stereo not drawn),AC50,[1],"15.8 µM [falling, partial curve]"
Cc1cccc(-c2nc3scc(CCNC(=O)c4ccccc4Cl)n3n2)c1,AC50,[1],"31.6 µM [falling, partial curve]"
CC(C)c1nn2c(=O)cc(COC(=O)c3ccc(NC(=O)CCc4ccccc4)cc3)nc2s1,AC50,[1],"5.01 µM [falling, partial curve]"
CCOC(=O)Cn1c(=O)oc2cc(S(=O)(=O)Nc3c(C)cc(C)cc3C)ccc21,AC50,[2],"31.6 µM [falling, partial curve]"
same,AC50,[3],"6.31 µM [falling, partial curve]"
CC1CCN(CCNC(=O)c2ccc(Cn3c(SCc4ccccc4)nc4cccnc43)cc2)CC1,AC50,[1],"20 µM [falling, partial curve, poor fit]"
COc1ccccc1CNC(=O)c1cccc(Nc2nc3ccccc3n3nnnc23)c1,AC50,[1],"39.8 µM [falling, single point]"
Cc1ccc2nc(N3CCN(c4cccc(C)c4C)CC3)c3nnnn3c2c1,AC50,[1],"31.6 µM [falling, partial curve]"
CCC1CN(C(=O)N2CCC(C(=O)NCc3cccs3)CC2)c2cc(C)ccc2O1 (stereo not drawn),AC50,[1],"25.1 µM [falling, partial curve]"
O=C(CC1(O)C(=O)N(CCc2ccccc2)c2ccc(Br)cc21)c1ccccc1O (stereo not drawn),AC50,[1],"31.6 µM [falling, single point]"
CCOc1ccc(-c2cc(C(=O)NCc3ccccc3)c3c(-c4ccc(CC)cc4)[nH]nc3n2)cc1,AC50,[1],"20 µM [rising, partial curve]"
CCCn1c2ccccc2c2cc(C(=O)O)ccc21,AC50,[1],"12.6 µM [falling, partial curve]"
CC(C)(C)C(=O)Nc1c(C(=O)N2CCN(c3ccc(F)cc3)CC2)oc2ccccc12,AC50,[1],"12.6 µM [falling, partial curve]"
CCn1c(CN2CCOCC2)nc2cc(NC(=O)c3cc(OC)c(OC)c(OC)c3)ccc21,AC50,[1],"31.6 µM [falling, partial curve]"
CSc1nn(Cc2ccc(Br)cc2)c(N(C(C)=O)C(C)=O)c1S(=O)(=O)c1ccccc1,AC50,[1],"20 µM [falling, partial curve]"
O=c1c2ccccc2nc(-c2cccc(Cl)c2)n1O,AC50,[1],"12.6 µM [falling, partial curve]"
COc1ccc(-c2cc(C(=O)NCc3ccccc3)c3c(-c4ccccc4)[nH]nc3n2)cc1,AC50,[1],"0.794 µM [falling, full curve]"
CC1CCN(C(=O)Cn2ncc3c4ccccc4n(Cc4ccc(Cl)cc4)c3c2=O)CC1,AC50,[1],"7.94 µM [falling, partial curve]"
CCC(c1nnnn1Cc1ccco1)N(CCc1ccccc1)Cc1cc2ccc(OC)cc2[nH]c1=O (stereo not drawn),AC50,[2],"7.94 µM [falling, partial curve]"
same,AC50,[3],"10 µM [falling, partial curve]"
CCOc1ccc(NC(=O)c2ccc(F)c(S(=O)(=O)NCc3ccc4c(c3)OCO4)c2)cc1,AC50,[1],"25.1 µM [falling, single point]"
Cc1oc2ncn(CC(C)C)c(=O)c2c1C(=O)NCCCN(Cc1ccccc1)C(C)C,AC50,[1],"6.31 µM [rising, partial curve]"
CCOc1ccc(NC(=O)CSc2nnc(-c3ccc(C)cc3)c(-c3ccc(C)cc3)n2)cc1,AC50,[1],"10 µM [falling, partial curve]"
O=C(Cn1c(=O)nc(-c2ccccc2)c2ccccc21)NCCCc1ccccc1,AC50,[1],"15.8 µM [falling, single point]"
COc1ccc(CCNC(=O)CS(=O)Cc2nc(-c3ccc(C)cc3)oc2C)c(OC)c1 (stereo not drawn),AC50,[1],"39.8 µM [falling, single point]"
O=C(CSc1nnc(SCc2ccc(Cl)cc2)s1)N1CCOCC1,AC50,[1],"25.1 µM [falling, partial curve]"
COc1ccc(-n2c(COc3ccccc3)nnc2SCc2ccc(C#N)cc2)cc1,AC50,[1],"15.8 µM [falling, partial curve]"
Cc1ccccc1N1CCN(S(=O)(=O)c2nnc(NC(=O)c3ccc(Cl)cc3)s2)CC1,AC50,[1],"12.6 µM [falling, partial curve]"
CCSc1ncc(Cl)c(C(=O)N2CCN(c3ccc(OC)cc3)CC2)n1,AC50,[1],"20 µM [falling, partial curve]"
C=Cc1ccc(Cn2c(=O)n(-c3cccc(C)c3)c(=O)c3c2c2cc(C)ccc2n3C)cc1,AC50,[1],"31.6 µM [falling, single point]"
CCN(CC)CCCNC(=O)c1ccc2nc(CCc3ccccc3)oc2c1,AC50,[1],"0.00501 µM [falling, full curve, poor fit]"
Cc1ccc(S(=O)(=O)c2c(C)nn(-c3ccccc3)c2OC(=O)c2ccccc2F)cc1,AC50,[1],"1.26 µM [falling, full curve, poor fit]"
CCN(CC)c1ccc(NC(=O)C2COc3ccc(OC)cc3C2)c(C)c1 (stereo not drawn),AC50,[1],"15.8 µM [rising, partial curve]"
COc1ccccc1-c1cc(C(=O)Nc2cc(Cl)ccc2O)no1,AC50,[1],"0.0126 µM [falling, full curve]"
O=C(Nc1ccc(F)cc1F)c1ccc2c(=O)n3c(nc2c1)CCCCC3,AC50,[1],"12.6 µM [falling, partial curve]"
Cc1c(C(=O)N(C)c2cccc(C(F)(F)F)c2)sc2nc3n(c(=O)c12)CCCCC3,AC50,[1],"12.6 µM [falling, partial curve]"
CCOc1ccc(CNC(=O)c2cnc3sc(N4CCC(C)CC4)nn3c2=O)cc1OC,AC50,[1],"5.01 µM [rising, partial curve, poor fit]"
COc1cccc(-n2c(=O)c3sc4ccccc4c3n(CC(=O)Nc3cccc(Cl)c3)c2=O)c1,AC50,[1],"1.58 µM [falling, partial curve]"
Fc1ccc(CNc2nc3ccc(Cl)cc3n3nnnc23)cc1,AC50,[1],"2 µM [falling, full curve]"
O=S(=O)(Nc1cccc(-c2ccc(N3CCCCC3)nn2)c1)c1ccc(Cl)s1,AC50,[1],"20 µM [falling, single point]"
O=C(Nc1cccc(C(F)(F)F)c1)Nc1nnc(N2CCCCCC2)s1,AC50,[1],"12.6 µM [falling, partial curve]"
COc1ccccc1N1CCN(C(=O)c2cc(-c3ccc(C)c(F)c3)on2)CC1,AC50,[1],"12.6 µM [falling, partial curve]"

# Reformatted tab-delimited: part of the list above.
compound	measurement	setting	value
CC(=O)c1ccc(NC(=O)NCCc2c[nH]c3ccccc23)cc1	AC50	[1]	20 µM [falling, single point]
CC(=O)N(c1cccc(C)c1)C1SC(=O)N(c2ccccc2)C1=O (stereo not drawn)	AC50	[1]	15.8 µM [falling, partial curve]
Cc1cccc(-c2nc3scc(CCNC(=O)c4ccccc4Cl)n3n2)c1	AC50	[1]	31.6 µM [falling, partial curve]
CC(C)c1nn2c(=O)cc(COC(=O)c3ccc(NC(=O)CCc4ccccc4)cc3)nc2s1	AC50	[1]	5.01 µM [falling, partial curve]
CCOC(=O)Cn1c(=O)oc2cc(S(=O)(=O)Nc3c(C)cc(C)cc3C)ccc21	AC50	[2]	31.6 µM [falling, partial curve]
same	AC50	[3]	6.31 µM [falling, partial curve]
CC1CCN(CCNC(=O)c2ccc(Cn3c(SCc4ccccc4)nc4cccnc43)cc2)CC1	AC50	[1]	20 µM [falling, partial curve, poor fit]
COc1ccccc1CNC(=O)c1cccc(Nc2nc3ccccc3n3nnnc23)c1	AC50	[1]	39.8 µM [falling, single point]
Cc1ccc2nc(N3CCN(c4cccc(C)c4C)CC3)c3nnnn3c2c1	AC50	[1]	31.6 µM [falling, partial curve]
CCC1CN(C(=O)N2CCC(C(=O)NCc3cccs3)CC2)c2cc(C)ccc2O1 (stereo not drawn)	AC50	[1]	25.1 µM [falling, partial curve]
O=C(CC1(O)C(=O)N(CCc2ccccc2)c2ccc(Br)cc21)c1ccccc1O (stereo not drawn)	AC50	[1]	31.6 µM [falling, single point]
CCOc1ccc(-c2cc(C(=O)NCc3ccccc3)c3c(-c4ccc(CC)cc4)[nH]nc3n2)cc1	AC50	[1]	20 µM [rising, partial curve]
CCCn1c2ccccc2c2cc(C(=O)O)ccc21	AC50	[1]	12.6 µM [falling, partial curve]
CC(C)(C)C(=O)Nc1c(C(=O)N2CCN(c3ccc(F)cc3)CC2)oc2ccccc12	AC50	[1]	12.6 µM [falling, partial curve]
CCn1c(CN2CCOCC2)nc2cc(NC(=O)c3cc(OC)c(OC)c(OC)c3)ccc21	AC50	[1]	31.6 µM [falling, partial curve]
CSc1nn(Cc2ccc(Br)cc2)c(N(C(C)=O)C(C)=O)c1S(=O)(=O)c1ccccc1	AC50	[1]	20 µM [falling, partial curve]
O=c1c2ccccc2nc(-c2cccc(Cl)c2)n1O	AC50	[1]	12.6 µM [falling, partial curve]
COc1ccc(-c2cc(C(=O)NCc3ccccc3)c3c(-c4ccccc4)[nH]nc3n2)cc1	AC50	[1]	0.794 µM [falling, full curve]
